One data set is described as follows: general procedure: solution-phase peptide synthesis; TPTU/HOBT/DIEA; HATU/DIEA. To be noted: late stage modification step.
On to “(2S)-3-phenyl-2-(3-(4-(trifluoromethoxy)phenyl)ureido)-N-((6S,9S,11aS,17S)-6,9,10-trimethyl-5,8,11,16,20-pentaoxohexadecahydro-1H,5H,16H-dipyrrolo[2,1-c:2′,1′-l][1]oxa[4,7,10,13]tetraazacyclohexadecin-17-yl)propanamide”, for which the step yield is on record as 40.6%.
As for “(2S,6S,9S,11aS,13R,17S,18S,20aS)-17-((S)-3-(3,5-difluorophenyl)-2-(3-(p-tolyl)ureido)propanamido)-2,6,9,10,18-pentamethyl-5,8,11,16,20-pentaoxohexadecahydro-1H,5H,16H-dipyrrolo[2,1-c:2′,1′-l][1]oxa[4,7,10,13]tetraazacyclohexadecin”, the step yield entry is “about 14%”.
For “(S)—N-((2R,6S,8aS,14aS,20S,23aS)-2,6-dimethyl-5,8,14,19,23-pentaoxooctadecahydro-1H,5H,14H,19H-pyrido[2,1-i]dipyrrolo[2,1-c:2′,1′-l][1]oxa[4,7,10,13]tetraazacyclohexadecin-20-yl)-3-phenyl-2-(3-phenylureido)propanamide”, the step yield is 40%.
The same measure, in the same setting: next, “(S)-3-(3,5-difluorophenyl)-N-((2R,6S,9R,11aS,17S,20aS)-9-((R)-1-hydroxyethyl)-2,6,10-trimethyl-5,8,11,16,20-pentaoxohexadecahydro-1H,5H,16H-dipyrrolo[2,1-c:2′,1′-l][1]oxa[4,7,10,13]tetraazacyclohexadecin-17-yl)-2-(3-(p-tolyl)ureido)propanamide”: 35%; “(S)—N-((2R,6S,8aS,14aS,20S,23aS)-2,6-dimethyl-5,8,14,19,23-pentaoxooctadecahydro-1H,5H,14H,19H-pyrido[2,1-i]dipyrrolo[2,1-c:2′,1′-l][1]oxa[4,7,10,13]tetraazacyclohexadecin-20-yl)-2-(3-(1-methylindolin-5-yl)ureido)-3-phenylpropanamide”: 44.1%; “(S)-3-(3,5-difluorophenyl)-N-((2R,6S,8aS,14aS,20S,23aS)-2,6-dimethyl-5,8,14,19,23-pentaoxooctadecahydro-1H,5H,14H,19H-pyrido[2,1-i]dipyrrolo[2,1-c:2′,1′-l][1]oxa[4,7,10,13]tetraazacyclohexadecin-20-yl)-2-(3-(4-ethylphenyl)ureido)propanamide”: 44%.
For the substance “(S)—N-((2R,6S,8aS,14aS,20S,23aS)-2,6-dimethyl-5,8,14,19,23-pentaoxooctadecahydro-1H,5H,14H,19H-pyrido[2,1-i]dipyrrolo[2,1-c:2′,1′-l][1]oxa[4,7,10,13]tetraazacyclohexadecin-20-yl)-2-(3-(4-(dimethylamino)phenyl)ureido)-3-phenylpropanamide”, the step yield is given as 11.5%.
The same measure, in the same setting: the same measure for “(S)-2-(3-(3-chlorophenyl)ureido)-N-((2R,6S,8aS,14aS,20S,23aS)-2,6-dimethyl-5,8,14,19,23-pentaoxooctadecahydro-1H,5H,14H,19H-pyrido[2,1-i]dipyrrolo[2,1-c:2′,1′-l][1]oxa[4,7,10,13]tetraazacyclohexadecin-20-yl)-3-phenylpropanamide”: 24.9%.
Still for that read-out and setting: the same measure for “(S)—N-((2R,6S,8aS,14aS,20S,23aS)-2,6-dimethyl-5,8,14,19,23-pentaoxooctadecahydro-1H,5H,14H,19H-pyrido[2,1-i]dipyrrolo[2,1-c:2′,1′-l][1]oxa[4,7,10,13]tetraazacyclohexadecin-20-yl)-3-phenyl-2-(3-(4-(trifluoromethoxy)phenyl)ureido)propanamide [2]”: 41%; for “(S)-3-(3,5-difluorophenyl)-2-(3-(p-tolyl)ureido)-N-((2R,6S,8aS,14aS,20S,21S,23aS)-2,6,21-trimethyl-5,8,14,19,23-pentaoxooctadecahydro-1H,5H,14H,19H-pyrido[2,1-i]dipyrrolo[2,1-c:2′,1′-l][1]oxa[4,7,10,13]tetraazacyclohexadecin-20-yl)propanamide”: 39%; for “(S)-3-(3,5-difluorophenyl)-2-(3-(4-(trifluoromethoxy)phenyl)ureido)-N-((2R,6S,8aS,14aS,20S,21S,23aS)-2,6,21-trimethyl-5,8,14,19,23-pentaoxooctadecahydro-1H,5H,14H,19H-pyrido[2,1-i]dipyrrolo[2,1-c:2′,1′-l][1]oxa[4,7,10,13]tetraazacyclohexadecin-20-yl)propanamide”: 39%.
Take “(2R,6S,8aS,14aS,16R,20S,21S,23aS)-20-((S)-3-(3,5-difluorophenyl)-2-(3-(p-tolyl)ureido)propanamido)-2,6,21-trimethyl-5,8,14,19,23-pentaoxooctadecahydro-1H,5H,14H,19H-pyrido[2,1-i]dipyrrolo[2,1-c:2′,1′-l][1]oxa[4,7,10,13]”: the step yield result was “about 25%”.
Still for that read-out and setting: the same measure for “(S)—N-((2R,6S,8aS,14aS,20S,23aS)-2,6-dimethyl-5,8,14,19,23-pentaoxooctadecahydro-1H,5H,14H,19H-pyrido[2,1-i]dipyrrolo[2,1-c:2′,1′-l][1]oxa[4,7,10,13]tetraazacyclohexadecin-20-yl)-2-(3-(1-methyl-1H-indol-6-yl)ureido)-3-phenylpropanamide”: 44.1%; for “(S)-3-(3,5-difluorophenyl)-2-(3-(4-(trifluoromethyl)phenyl)ureido)-N-((2R,6S,8aS,14aS,20S,21S,23aS)-2,6,21-trimethyl-5,8,14,19,23-pentaoxooctadecahydro-1H,5H,14H,19H-pyrido[2,1-i]dipyrrolo[2,1-c:2′,1′-l][1]oxa[4,7,10,13]tetraazacyclohexadecin-20-yl)propanamide”: 33%.
On to “(S)—N-((2R,6S,8aS,14aS,20S,23aS)-2,6-dimethyl-5,8,14,19,23-pentaoxooctadecahydro-1H,5H,14H,19H-pyrido[2,1-i]dipyrrolo[2,1-c:2′,1′-l][1]oxa[4,7,10,13]tetraazacyclohexadecin-20-yl)-2-(3-(3-methoxyphenyl)ureido)-3-phenylpropanamide”, for which the step yield was determined as 25.8%.
On the same count and under the same terms, the same measure for “(S)-3-(3,5-difluorophenyl)-N-((6S,8aS,14aS,20S,21S,23aS)-6,21-dimethyl-5,8,14,19,23-pentaoxooctadecahydro-1H,5H,14H,19H-pyrido[2,1-i]dipyrrolo[2,1-c:2′,1′-l][1]oxa[4,7,10,13]tetraazacyclohexadecin-20-yl)-2-(3-(p-tolyl)ureido)propanamide”: 54%.

Still in this data set, the particulars now being: late stage modification step, on macrocycle C.
In turn, “(S)-2-(3-(benzo[d][1,3]dioxol-5-yl)ureido)-N-((2R,6S,8aS,14aS,20S,23aS)-2,6-dimethyl-5,8,14,19,23-pentaoxooctadecahydro-1H,5H,14H,19H-pyrido[2,1-i]dipyrrolo[2,1-c:2′,1′-l][1]oxa[4,7,10,13]tetraazacyclohexadecin-20-yl)-3-phenylpropanamide” registered a step yield of 25.2%.
Still for that read-out and setting: next, “(S)—N-((2S,6S,8aS,14aS,20S,23aS)-2,6-dimethyl-5,8,14,19,23-pentaoxooctadecahydro-1H,5H,14H,19H-pyrido[2,1-i]dipyrrolo[2,1-c:2′,1′-l][1]oxa[4,7,10,13]tetraazacyclohexadecin-20-yl)-3-phenyl-2-(3-(p-tolyl)ureido)propanamide”: 43.6%.
The same measure, in the same setting: the same measure for “(S)-3-(3,5-difluorophenyl)-N-((2S,6S,9S,11aS,13R,17S,18S,20aS)-13-hydroxy-2,6,9,10,18-pentamethyl-5,8,11,16,20-pentaoxohexadecahydro-1H,5H,16H-dipyrrolo[2,1-c:2′,1′-l][1]oxa[4,7,10,13]tetraazacyclohexadecin-17-yl)-2-(3-(4-(trifluoromethoxy)phenyl)ureido)propanamide”: 34.8%.
As to “(S)-3-(3,5-difluorophenyl)-2-(3-(4-ethylphenyl)ureido)-N-((2S,6S,9S,11aS,17S,18S,20aS)-9-((R)-1-hydroxyethyl)-2,6,10,18-tetramethyl-5,8,11,16,20-pentaoxohexadecahydro-1H,5H,16H-dipyrrolo[2,1-c:2′,1′-l][1]oxa[4,7,10,13]tetraazacyclohexadecin-17-yl)propanamide”, the step yield was 43%.
Substance “(S)-3-(3,5-difluorophenyl)-2-(3-(p-tolyl)ureido)-N-((2R,6S,8aS,14aS,20S,21S,23aS)-2,6,21-trimethyl-5,8,14,19,23-pentaoxooctadecahydro-1H,5H,14H,19H-pyrido[2,1-i]dipyrrolo[2,1-c:2′,1′-l][1]oxa[4,7,10,13]tetraazacyclohexadecin-20-yl)propanamide” gave a step yield of 52.2%.
In the case of “(S)-2-(3-(benzo[d][1,3]dioxol-5-yl)ureido)-3-(3,5-difluorophenyl)-N-((6aS,12S,13S,15aS,17R,21S,23aS)-13,17,21-trimethyl-6,11,15,20,23-pentaoxooctadecahydro-6H,11H,15H-[1,4]oxazino[3,4-i]dipyrrolo[2,1-c:2′,1′-l][1]oxa[4,7,10,13]tetraazacyclohexadecin-12-yl)propanamide”, the step yield is recorded as 64.2%.
Consider “(S)-3-(3,5-difluorophenyl)-N-((2R,6S,9S,11aS,17S,18S,20aS)-9-((R)-1-hydroxyethyl)-2,6,10,18-tetramethyl-5,8,11,16,20-pentaoxohexadecahydro-1H,5H,16H-dipyrrolo[2,1-c:2′,1′-l][1]oxa[4,7,10,13]tetraazacyclohexadecin-17-yl)-2-(3-(4-(trifluoromethoxy)phenyl)ureido)propanamide”, for which the step yield was 68.3%.
For the substance “(S)-3-(3,5-difluorophenyl)-N-((2R,6S,8aS,14aS,20S,23aS)-2-fluoro-6-methyl-5,8,14,19,23-pentaoxooctadecahydro-1H,5H,14H,19H-pyrido[2,1-i]dipyrrolo[2,1-c:2′,1′-l][1]oxa[4,7,10,13]tetraazacyclohexadecin-20-yl)-2-(3-(p-tolyl)ureido)propanamide”, the step yield is given as 17.9%.
In turn, “(S)-2-(3-(benzo[d][1,3]dioxol-5-yl)ureido)-3-(3,5-difluorophenyl)-N-((2R,6S,9S,11aS,17S,18S,20aS)-9-((R)-1-hydroxyethyl)-2,6,10,18-tetramethyl-5,8,11,16,20-pentaoxohexadecahydro-1H,5H,16H-dipyrrolo[2,1-c:2′,1′-l][1]oxa[4,7,10,13]tetraazacyclohexadecin-17-yl)propanamide” returned a step yield of 84%.
Turning to “(S)-3-(3,5-difluorophenyl)-2-(3-(4-ethylphenyl)ureido)-N-((2R,6S,9S,11aS,17S,18S,20aS)-9-((R)-1-hydroxyethyl)-2,6,10,18-tetramethyl-5,8,11,16,20-pentaoxohexadecahydro-1H,5H,16H-dipyrrolo[2,1-c:2′,1′-l][1]oxa[4,7,10,13]tetraazacyclohexadecin-17-yl)propanamide”, the step yield turned out to be 65.1%.

Values taken from patent publication US10457707B2 (priority 2015, dated 2019).
